PubChem BioAssay AID1224830 – NIAID | 2016

Screen: 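Genes whose knock-down alters the TNF-alpha reporter response to LPS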 (primary screen)
Cells: human THP-1 monocytic leukaemia cells, TNF dual-luciferase reporter clone, PMA-differentiated to macrophage-like cells
Reagent: siRNA pool against human genes, 50 nM
Duration: LPS for 4 h, given about 3 days after siRNA transfection
Treatment: bacterial LPS (TLR4 ligand), 10 ng/ml
Measured: 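TNF firefly reporter luminescence divided by renilla, normalised to the plate median, then turned into a robust z-score for each replicate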
Reading the numbers: TNF reporter robust z-score: higher = stronger TNF reporter response to LPS
Call rule: 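a well is active when its z-score exceeds 2.8 or falls below -1.5; control wells carry no call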
This is a random part of about 18,000 reagents. Of all reagents, about 2,900 (16%) were called active. 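Calls are made per well; low scores hint the gene aids the LPS response, high scores that it dampens it.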 Repeated entries: four replicate wells of each siRNA pool.

gene	TNF reporter robust z-score	call
ADNP2 (ADNP homeobox 2)	0.37	inactive
ADNP2 (ADNP homeobox 2)	0.13	inactive
ADNP2 (ADNP homeobox 2)	-0.36	inactive
ADNP2 (ADNP homeobox 2)	-0.34	inactive
TRIM73 (tripartite motif containing 73)	-0.55	inactive
TRIM73 (tripartite motif containing 73)	1.29	inactive
TRIM73 (tripartite motif containing 73)	-0.78	inactive
TRIM73 (tripartite motif containing 73)	1.58	inactive
SIAH2 (siah E3 ubiquitin protein ligase 2)	0.4	inactive
SIAH2 (siah E3 ubiquitin protein ligase 2)	-0.45	inactive
SIAH2 (siah E3 ubiquitin protein ligase 2)	-1.95	active
SIAH2 (siah E3 ubiquitin protein ligase 2)	0.86	inactive
EIF5A2 (eukaryotic translation initiation factor 5A2)	0.81	inactive
EIF5A2 (eukaryotic translation initiation factor 5A2)	1.65	inactive
EIF5A2 (eukaryotic translation initiation factor 5A2)	-0.39	inactive
EIF5A2 (eukaryotic translation initiation factor 5A2)	-0.82	inactive
NAB1 (NGFI-A binding protein 1)	1.85	inactive
NAB1 (NGFI-A binding protein 1)	0.22	inactive
NAB1 (NGFI-A binding protein 1)	-0.19	inactive
NAB1 (NGFI-A binding protein 1)	0.41	inactive
RAB30 (RAB30, member RAS oncogene family)	-0.42	inactive
RAB30 (RAB30, member RAS oncogene family)	-0.27	inactive
RAB30 (RAB30, member RAS oncogene family)	0.12	inactive
RAB30 (RAB30, member RAS oncogene family)	-0.07	inactive
TMCO4 (transmembrane and coiled-coil domains 4)	0.59	inactive
TMCO4 (transmembrane and coiled-coil domains 4)	0.92	inactive
TMCO4 (transmembrane and coiled-coil domains 4)	-0.42	inactive
TMCO4 (transmembrane and coiled-coil domains 4)	-0.07	inactive
C12orf60 (chromosome 12 open reading frame 60)	-0.15	inactive
C12orf60 (chromosome 12 open reading frame 60)	-0.54	inactive
C12orf60 (chromosome 12 open reading frame 60)	-0.39	inactive
C12orf60 (chromosome 12 open reading frame 60)	-0.06	inactive
INPP5B (inositol polyphosphate-5-phosphatase B)	0.29	inactive
INPP5B (inositol polyphosphate-5-phosphatase B)	0.74	inactive
INPP5B (inositol polyphosphate-5-phosphatase B)	-0.48	inactive
INPP5B (inositol polyphosphate-5-phosphatase B)	2.24	inactive
AGO3 (argonaute RISC catalytic component 3)	0.05	inactive
AGO3 (argonaute RISC catalytic component 3)	0.49	inactive
AGO3 (argonaute RISC catalytic component 3)	-0.79	inactive
AGO3 (argonaute RISC catalytic component 3)	0	inactive
SLC34A2	-1.36	inactive
SLC34A2	-1.1	inactive
SLC34A2	-1.18	inactive
SLC34A2	-0.67	inactive
RAB14 (RAB14, member RAS oncogene family)	-1.45	inactive
RAB14 (RAB14, member RAS oncogene family)	-0.64	inactive
RAB14 (RAB14, member RAS oncogene family)	-0.87	inactive
RAB14 (RAB14, member RAS oncogene family)	-1.24	inactive
EMX2 (empty spiracles homeobox 2)	-0.14	inactive
EMX2 (empty spiracles homeobox 2)	1.19	inactive
EMX2 (empty spiracles homeobox 2)	1.52	inactive
EMX2 (empty spiracles homeobox 2)	1.8	inactive
LPL (lipoprotein lipase)	-0.83	inactive
LPL (lipoprotein lipase)	-0.65	inactive
LPL (lipoprotein lipase)	-0.01	inactive
LPL (lipoprotein lipase)	0.92	inactive
KIAA0319L (KIAA0319 like)	-0.32	inactive
KIAA0319L (KIAA0319 like)	-0.92	inactive
KIAA0319L (KIAA0319 like)	-0.13	inactive
KIAA0319L (KIAA0319 like)	-0.16	inactive
MAPK8 (mitogen-activated protein kinase 8)	-0.98	inactive
MAPK8 (mitogen-activated protein kinase 8)	-0.73	inactive
MAPK8 (mitogen-activated protein kinase 8)	-0.6	inactive
MAPK8 (mitogen-activated protein kinase 8)	0.71	inactive
PCDHGA11 (protocadherin gamma subfamily A, 11)	0.19	inactive
PCDHGA11 (protocadherin gamma subfamily A, 11)	0.96	inactive
PCDHGA11 (protocadherin gamma subfamily A, 11)	-0.38	inactive
PCDHGA11 (protocadherin gamma subfamily A, 11)	1.48	inactive
B3GALNT2 (beta-1,3-N-acetylgalactosaminyltransferase 2)	-2.16	active
B3GALNT2 (beta-1,3-N-acetylgalactosaminyltransferase 2)	-0.21	inactive
B3GALNT2 (beta-1,3-N-acetylgalactosaminyltransferase 2)	-2.03	active
B3GALNT2 (beta-1,3-N-acetylgalactosaminyltransferase 2)	0.48	inactive
MSI1 (musashi RNA binding protein 1)	0.83	inactive
MSI1 (musashi RNA binding protein 1)	0	inactive
MSI1 (musashi RNA binding protein 1)	2.89	active
MSI1 (musashi RNA binding protein 1)	-0.27	inactive
KRTAP3-1 (keratin associated protein 3-1)	-1.65	active
KRTAP3-1 (keratin associated protein 3-1)	-1.82	active
KRTAP3-1 (keratin associated protein 3-1)	-1.85	active
KRTAP3-1 (keratin associated protein 3-1)	-1.71	active
OR8A1 (olfactory receptor family 8 subfamily A member 1)	-0.48	inactive
OR8A1 (olfactory receptor family 8 subfamily A member 1)	-0.17	inactive
OR8A1 (olfactory receptor family 8 subfamily A member 1)	-0.01	inactive
OR8A1 (olfactory receptor family 8 subfamily A member 1)	-0.09	inactive
FRMPD1 (FERM and PDZ domain containing 1)	0.07	inactive
FRMPD1 (FERM and PDZ domain containing 1)	-0.66	inactive
FRMPD1 (FERM and PDZ domain containing 1)	-0.43	inactive
FRMPD1 (FERM and PDZ domain containing 1)	0.01	inactive
C12orf57 (chromosome 12 open reading frame 57)	-0.97	inactive
C12orf57 (chromosome 12 open reading frame 57)	-1.15	inactive
C12orf57 (chromosome 12 open reading frame 57)	-1.46	inactive
C12orf57 (chromosome 12 open reading frame 57)	-1.31	inactive
ATP5MC2 (ATP synthase membrane subunit c locus 2)	-0.64	inactive
ATP5MC2 (ATP synthase membrane subunit c locus 2)	-0.41	inactive
ATP5MC2 (ATP synthase membrane subunit c locus 2)	-0.11	inactive
ATP5MC2 (ATP synthase membrane subunit c locus 2)	-0.07	inactive
GNG12 (G protein subunit gamma 12)	0.94	inactive
GNG12 (G protein subunit gamma 12)	0.73	inactive
GNG12 (G protein subunit gamma 12)	-0.22	inactive
GNG12 (G protein subunit gamma 12)	0.21	inactive
PRAMEF3 (retired record)	3.94	active
PRAMEF3 (retired record)	2.87	active
PRAMEF3 (retired record)	0.62	inactive
PRAMEF3 (retired record)	1.64	inactive
OR1D5 (olfactory receptor family 1 subfamily D member 5)	0.61	inactive
OR1D5 (olfactory receptor family 1 subfamily D member 5)	-0.21	inactive
OR1D5 (olfactory receptor family 1 subfamily D member 5)	-0.01	inactive
OR1D5 (olfactory receptor family 1 subfamily D member 5)	-0.44	inactive
MMP27 (matrix metallopeptidase 27)	1.41	inactive
MMP27 (matrix metallopeptidase 27)	-0.69	inactive
MMP27 (matrix metallopeptidase 27)	2.05	inactive
MMP27 (matrix metallopeptidase 27)	-0.54	inactive
